Assay results reported in PubChem BioAssay AID493014 (National Center for Advancing Translational Sciences (NCATS), 2011).
Out of some 340,000 compounds screened, about 170 (0.05%) were called active. This list was built around the results that the source calls inconclusive (neither active nor inactive); the mix of calls is not that of the screen. Calls follow the shape of the dose curve; as a rule, active = well fitted inhibition curve with a large enough effect in the signal ratio, with a control signal flat (not every such curve was filed as active); inconclusive = small, poorly fitted or top-dose-only effect, or effect the other way, or a change in a side signal; inactive = flat fitted curve, though single readings scatter; the % refers to the signal ratio. Where the call is inconclusive, the potency comes from a doubtful curve fit.

Experiment: qHTS Assay to Find Inhibitors of Chronic Active B-Cell Receptor Signaling;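 as to activity change, negative = inhibition: plate controls were basal doxycycline-induced cells for no effect and cells given 10 µM MG132 for full effect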
Conditions: ABC-DLBCL IkBa-CBG/CBR reporter, luminescence ratio (green luciferase fused to IkBa over red control in TMD8 lymphoma cells), 4 h; activity change, negative = inhibition: at 46.1 µM (top of the series)
Summary of the method: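 Compounds up to 46 uM were incubated four hours with TMD8 cells whose green CBG68 luciferase is fused to IkappaBalpha; red CBR luminescence normalised the signal, and concentration-effect curves were fitted to fusion, red and ratio data.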
Potency is read from the fitted curve at half-maximal effect.

Structure (SMILES)	Potency	activity change, negative = inhibition
CCc1ccc(NC(=O)Nc2ccc3c(c2)N(C)C(=O)CS3)cc1	inconclusive: 9.2 µM [rising, partial curve]	
Nc1n[nH]c(=S)n1/N=C1/C(=O)Nc2ccccc21	inconclusive: 15.8 µM [falling, single point]	
COc1ccccc1NC(=O)CSc1nc2ccccc2nc1N1CC(C)OC(C)C1 (configuration not stated)	inconclusive: 8.91 µM [falling, partial curve, poor fit]	
CSCCC(NC(N)=O)C(=O)NCc1ccc(Cl)cc1 (configuration not stated)		inconclusive: 7.01%
Cc1cc(C)c(S(=O)(=O)c2ccccc2Cl)c(Cl)n1		inactive
Cc1ccc(NC(=O)C2COc3ccccc3O2)cc1 (configuration not stated)		inactive
N#Cc1cc(C(=O)c2cc(Br)ccc2O)cn(C2CC2)c1=O		inactive
CCC(=O)Nc1cc(C)c(O)c(-c2nc3ncccc3o2)c1		inconclusive: 32.2%
O=C(c1ccco1)N1CCN(Cc2nc(-c3cccs3)no2)CC1		inconclusive: 11.9%
CCN(CC)CCNC(=O)c1cc2c(s1)-c1ccccc1SC2	inconclusive: 25.1 µM [falling, partial curve, poor fit]	
COc1cccc(-n2nc(C(C)=O)c(=O)[nH]c2=O)c1		inconclusive: 5.62%
O=C(CSc1nc2ccccc2c(=O)n1-c1ccccc1F)N1CCOCC1		inconclusive: -8.57%
CC1CC(C)CN(CC(O)COCc2ccccc2)C1 (configuration not stated)		inactive
O=C(Cn1nc(-c2ccccc2)ccc1=O)NCCCN1CCOCC1		inconclusive: -8.18%
COC(=O)c1cc(CSc2nc3ccccc3[nH]2)oc1C	inconclusive: 4.61 µM [falling, partial curve, poor fit]	
COc1cc2ccccc2cc1C(=O)Nc1sc2c(c1C(N)=O)CCN(C(C)C)C2		inconclusive: -11.2%
CCOc1ccc(NC(=O)NCc2ccccn2)cc1		inconclusive: -12.6%
O=C1c2cccc(OCC(=O)N3CCCc4ccccc43)c2CCN1Cc1ccc(F)cc1	inconclusive: 29.1 µM [falling, partial curve, poor fit]	
CCC(Sc1ncccc1C(=O)Oc1cccc([N+](=O)[O-])c1)C(=O)Nc1ccccc1OC (configuration not stated)		inconclusive: -9.23%
COc1ccc(OCC(=O)Nc2cccc(-c3nc4ccccc4o3)c2)cc1	inconclusive: 16.4 µM [falling, partial curve, poor fit]	
CCC(c1nnc(SCC(=O)Nc2cc(S(C)(=O)=O)ccc2Cl)n1Cc1ccccc1)N(C)C (configuration not stated)		inconclusive: 7.28%
Cc1ccn(-c2cc(O)c(-n3ccc(C)n3)cc2O)n1		inactive

2 consecutive compounds already listed, for reference:
Structure (SMILES)	Potency	activity change, negative = inhibition
CCc1ccc(NC(=O)Nc2ccc3c(c2)N(C)C(=O)CS3)cc1	inconclusive: 9.2 µM [rising, partial curve]	
Nc1n[nH]c(=S)n1/N=C1/C(=O)Nc2ccccc21	inconclusive: 15.8 µM [falling, single point]	
